Consider 3 molecules from article PMC10750294.

By UniProt entry, the sequences of proteins in these tests, tags left out.
UniProt P06748: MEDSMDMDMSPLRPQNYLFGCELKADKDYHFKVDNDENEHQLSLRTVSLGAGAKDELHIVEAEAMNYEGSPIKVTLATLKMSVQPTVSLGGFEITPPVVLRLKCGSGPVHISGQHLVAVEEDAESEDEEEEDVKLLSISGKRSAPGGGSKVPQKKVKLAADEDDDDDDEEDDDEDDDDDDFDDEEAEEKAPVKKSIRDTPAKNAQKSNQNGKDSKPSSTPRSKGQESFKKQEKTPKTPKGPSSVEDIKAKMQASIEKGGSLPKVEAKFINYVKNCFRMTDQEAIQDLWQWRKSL

Test [1] has as its target T1, Mesencephalic astrocyte-derived neurotrophic factor (MANF) (human (endogenous in villi tissue of patients)) (UniProt P55145).
T1 sequence: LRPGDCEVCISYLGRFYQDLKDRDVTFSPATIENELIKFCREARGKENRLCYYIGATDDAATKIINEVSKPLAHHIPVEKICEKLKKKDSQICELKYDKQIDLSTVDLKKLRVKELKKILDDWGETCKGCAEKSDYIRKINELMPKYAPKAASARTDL
Description: co-IP; total proteins of villi tissue of URM patients in NP40 lysis buffer; magnetic beads with primary antibody (MANF or NPM1), overnight at 4 °C; western blotting.

The target of test [2] is Nucleophosmin 1 (NPM1) (human (endogenous in villi tissue of patients)) (UniProt P06748). The test is described as above.
The next test deals with GST-NPM1 (UniProt P06748). Description: pull-down; GST-NPM1 (or GST-labeled protein) on GST beads, 4 °C 4 h; HIS-MANF added, 4 °C overnight; PBS washes; western blotting; both purified. On the technique in general: A western blot detects proteins with antibodies after separation by electrophoresis.

Results are given in words; binding and its absence hold for the method and conditions named. For part of these data: In cells and extracts the contact can be indirect. Some binding calls cover weakened binding; strength is not graded here. For part of these data: Tags and fused reporters may be left off the sequences shown.

For “Nucleophosmin 1 (NPM1) (from UniProt P06748 1-294)”, the binding result in test [1] is on record as “binds”.

B1: Mesencephalic astrocyte-derived neurotrophic factor (MANF) (protein, UniProt P55145 25-182)
chain: T1 sequence
Consider B1, for which the binding entry in test [2] is listed as “binds”.

B2: HIS-MANF (protein, UniProt P55145 25-182)
chain: T1 sequence
In the case of B2, the binding entry with GST-NPM1 is given as “binds”.
